# According to the supplement of paper PMC12823440, “Inhibitors supercharge kinase turnover through native proteolytic circuits” (Nature, 2025):
# Sequences of proteins named here, by UniProt entry; tags and fusion partners are left off. A change or cut given only in a name is not applied to a line headed by its entry.
# UniProt P07949, whole entry, looked up: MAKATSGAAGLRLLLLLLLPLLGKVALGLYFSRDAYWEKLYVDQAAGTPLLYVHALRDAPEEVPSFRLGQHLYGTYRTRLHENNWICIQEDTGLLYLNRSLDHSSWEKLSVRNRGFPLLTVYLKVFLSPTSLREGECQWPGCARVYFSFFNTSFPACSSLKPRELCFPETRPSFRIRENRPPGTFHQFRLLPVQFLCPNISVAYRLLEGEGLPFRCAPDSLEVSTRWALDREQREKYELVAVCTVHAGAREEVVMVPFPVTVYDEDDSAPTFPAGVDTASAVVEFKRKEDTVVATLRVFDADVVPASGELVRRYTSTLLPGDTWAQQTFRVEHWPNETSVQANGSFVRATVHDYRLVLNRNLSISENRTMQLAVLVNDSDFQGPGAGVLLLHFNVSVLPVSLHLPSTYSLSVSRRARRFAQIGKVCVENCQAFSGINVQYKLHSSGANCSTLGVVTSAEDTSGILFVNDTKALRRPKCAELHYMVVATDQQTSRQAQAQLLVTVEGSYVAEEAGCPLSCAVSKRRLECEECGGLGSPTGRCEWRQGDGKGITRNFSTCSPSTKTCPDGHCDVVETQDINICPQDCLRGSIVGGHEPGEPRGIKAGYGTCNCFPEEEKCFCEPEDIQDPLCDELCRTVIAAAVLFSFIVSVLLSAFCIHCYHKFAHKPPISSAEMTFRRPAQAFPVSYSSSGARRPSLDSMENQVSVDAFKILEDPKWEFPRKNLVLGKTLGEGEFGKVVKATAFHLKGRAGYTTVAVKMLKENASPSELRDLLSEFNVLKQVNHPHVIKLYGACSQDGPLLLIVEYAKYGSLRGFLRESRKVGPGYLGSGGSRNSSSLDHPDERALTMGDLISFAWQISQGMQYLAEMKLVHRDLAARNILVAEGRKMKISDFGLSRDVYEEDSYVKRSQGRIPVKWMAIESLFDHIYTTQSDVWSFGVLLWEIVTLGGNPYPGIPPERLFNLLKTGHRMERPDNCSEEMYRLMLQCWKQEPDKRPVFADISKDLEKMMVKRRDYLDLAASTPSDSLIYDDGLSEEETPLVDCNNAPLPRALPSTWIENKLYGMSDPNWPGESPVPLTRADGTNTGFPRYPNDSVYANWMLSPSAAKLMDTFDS
# UniProt P07949, whole entry M918T, looked up: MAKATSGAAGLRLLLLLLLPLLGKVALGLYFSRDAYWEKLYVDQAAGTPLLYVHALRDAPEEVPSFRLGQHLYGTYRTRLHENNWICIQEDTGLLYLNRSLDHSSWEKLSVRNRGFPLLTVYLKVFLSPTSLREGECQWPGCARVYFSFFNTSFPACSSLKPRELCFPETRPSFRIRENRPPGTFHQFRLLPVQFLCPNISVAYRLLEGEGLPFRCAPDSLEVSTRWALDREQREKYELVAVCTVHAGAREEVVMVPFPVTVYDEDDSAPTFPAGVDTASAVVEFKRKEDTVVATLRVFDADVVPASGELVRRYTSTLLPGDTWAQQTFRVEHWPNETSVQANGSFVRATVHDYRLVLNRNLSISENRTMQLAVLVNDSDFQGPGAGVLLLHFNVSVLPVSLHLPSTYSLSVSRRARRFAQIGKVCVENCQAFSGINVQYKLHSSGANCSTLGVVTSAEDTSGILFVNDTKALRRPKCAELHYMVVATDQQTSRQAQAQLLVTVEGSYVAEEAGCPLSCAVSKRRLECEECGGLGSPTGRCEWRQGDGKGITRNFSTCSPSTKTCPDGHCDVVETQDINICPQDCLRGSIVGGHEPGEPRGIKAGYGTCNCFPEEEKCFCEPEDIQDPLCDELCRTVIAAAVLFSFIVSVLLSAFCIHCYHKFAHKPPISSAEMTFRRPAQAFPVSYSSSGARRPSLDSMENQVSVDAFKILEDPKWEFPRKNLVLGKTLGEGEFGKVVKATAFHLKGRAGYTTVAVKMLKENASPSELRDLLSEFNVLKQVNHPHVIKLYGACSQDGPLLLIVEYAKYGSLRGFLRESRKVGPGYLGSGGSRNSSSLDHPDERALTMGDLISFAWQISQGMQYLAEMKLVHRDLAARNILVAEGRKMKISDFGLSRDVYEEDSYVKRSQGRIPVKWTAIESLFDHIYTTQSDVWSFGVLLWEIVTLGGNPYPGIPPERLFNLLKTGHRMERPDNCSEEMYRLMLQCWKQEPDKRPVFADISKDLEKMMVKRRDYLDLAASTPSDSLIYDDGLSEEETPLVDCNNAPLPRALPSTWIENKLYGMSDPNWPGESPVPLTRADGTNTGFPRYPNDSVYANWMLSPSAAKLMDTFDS
# UniProt Q9BRS2: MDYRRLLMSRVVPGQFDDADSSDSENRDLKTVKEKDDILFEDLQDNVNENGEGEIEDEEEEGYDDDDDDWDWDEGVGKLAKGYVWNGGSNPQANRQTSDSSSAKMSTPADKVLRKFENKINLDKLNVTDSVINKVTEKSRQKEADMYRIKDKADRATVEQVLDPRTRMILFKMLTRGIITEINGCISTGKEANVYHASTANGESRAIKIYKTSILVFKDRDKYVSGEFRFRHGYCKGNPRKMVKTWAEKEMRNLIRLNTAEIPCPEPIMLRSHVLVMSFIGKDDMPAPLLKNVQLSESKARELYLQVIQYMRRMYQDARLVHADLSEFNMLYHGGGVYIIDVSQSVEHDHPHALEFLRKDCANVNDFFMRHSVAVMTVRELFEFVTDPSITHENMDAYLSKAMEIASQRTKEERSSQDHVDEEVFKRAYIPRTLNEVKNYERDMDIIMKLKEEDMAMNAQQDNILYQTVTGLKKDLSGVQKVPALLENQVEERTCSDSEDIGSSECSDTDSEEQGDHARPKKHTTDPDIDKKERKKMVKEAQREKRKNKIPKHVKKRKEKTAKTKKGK
# UniProt Q13546: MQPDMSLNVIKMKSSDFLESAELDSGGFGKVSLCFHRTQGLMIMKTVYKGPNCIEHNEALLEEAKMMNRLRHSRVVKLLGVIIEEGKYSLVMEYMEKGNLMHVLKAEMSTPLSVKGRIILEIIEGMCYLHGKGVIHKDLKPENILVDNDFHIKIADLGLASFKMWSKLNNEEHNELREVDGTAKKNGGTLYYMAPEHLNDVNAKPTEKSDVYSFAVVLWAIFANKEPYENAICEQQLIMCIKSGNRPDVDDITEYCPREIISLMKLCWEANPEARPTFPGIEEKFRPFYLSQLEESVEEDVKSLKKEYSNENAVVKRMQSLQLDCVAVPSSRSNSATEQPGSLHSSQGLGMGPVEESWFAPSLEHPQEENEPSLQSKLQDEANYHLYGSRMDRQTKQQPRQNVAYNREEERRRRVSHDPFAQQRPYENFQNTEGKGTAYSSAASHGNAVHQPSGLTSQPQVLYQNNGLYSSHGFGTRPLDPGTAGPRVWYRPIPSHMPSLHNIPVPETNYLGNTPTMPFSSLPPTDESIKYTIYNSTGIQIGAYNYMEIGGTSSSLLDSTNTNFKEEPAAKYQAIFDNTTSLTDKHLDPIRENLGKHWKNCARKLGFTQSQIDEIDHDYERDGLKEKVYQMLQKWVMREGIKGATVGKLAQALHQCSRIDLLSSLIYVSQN
# UniProt Q01974, whole entry: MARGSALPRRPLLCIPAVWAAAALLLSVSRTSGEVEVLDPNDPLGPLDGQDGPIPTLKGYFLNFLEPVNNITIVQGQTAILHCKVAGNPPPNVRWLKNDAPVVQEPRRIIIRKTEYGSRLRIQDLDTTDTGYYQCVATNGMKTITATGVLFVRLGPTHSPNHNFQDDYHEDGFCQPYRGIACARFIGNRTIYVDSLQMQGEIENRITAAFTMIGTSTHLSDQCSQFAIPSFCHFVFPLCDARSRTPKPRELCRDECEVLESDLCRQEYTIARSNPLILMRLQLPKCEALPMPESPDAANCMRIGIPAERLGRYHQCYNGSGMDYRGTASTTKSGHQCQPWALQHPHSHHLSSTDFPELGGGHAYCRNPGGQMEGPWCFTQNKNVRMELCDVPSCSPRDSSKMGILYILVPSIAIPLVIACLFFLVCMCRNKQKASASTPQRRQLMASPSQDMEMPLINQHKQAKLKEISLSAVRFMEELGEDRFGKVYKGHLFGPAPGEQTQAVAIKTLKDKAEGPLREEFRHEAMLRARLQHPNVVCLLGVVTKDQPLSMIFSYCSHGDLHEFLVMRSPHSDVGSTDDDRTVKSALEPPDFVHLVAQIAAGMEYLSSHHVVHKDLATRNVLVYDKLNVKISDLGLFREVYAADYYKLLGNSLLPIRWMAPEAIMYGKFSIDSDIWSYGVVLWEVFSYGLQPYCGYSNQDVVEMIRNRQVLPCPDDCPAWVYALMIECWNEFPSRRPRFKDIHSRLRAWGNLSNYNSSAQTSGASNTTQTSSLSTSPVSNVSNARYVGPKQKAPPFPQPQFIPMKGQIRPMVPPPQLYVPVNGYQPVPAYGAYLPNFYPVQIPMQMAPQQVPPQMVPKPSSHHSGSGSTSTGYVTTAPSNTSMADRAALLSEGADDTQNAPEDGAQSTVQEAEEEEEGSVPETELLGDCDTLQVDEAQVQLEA
# UniProt Q15418, whole entry: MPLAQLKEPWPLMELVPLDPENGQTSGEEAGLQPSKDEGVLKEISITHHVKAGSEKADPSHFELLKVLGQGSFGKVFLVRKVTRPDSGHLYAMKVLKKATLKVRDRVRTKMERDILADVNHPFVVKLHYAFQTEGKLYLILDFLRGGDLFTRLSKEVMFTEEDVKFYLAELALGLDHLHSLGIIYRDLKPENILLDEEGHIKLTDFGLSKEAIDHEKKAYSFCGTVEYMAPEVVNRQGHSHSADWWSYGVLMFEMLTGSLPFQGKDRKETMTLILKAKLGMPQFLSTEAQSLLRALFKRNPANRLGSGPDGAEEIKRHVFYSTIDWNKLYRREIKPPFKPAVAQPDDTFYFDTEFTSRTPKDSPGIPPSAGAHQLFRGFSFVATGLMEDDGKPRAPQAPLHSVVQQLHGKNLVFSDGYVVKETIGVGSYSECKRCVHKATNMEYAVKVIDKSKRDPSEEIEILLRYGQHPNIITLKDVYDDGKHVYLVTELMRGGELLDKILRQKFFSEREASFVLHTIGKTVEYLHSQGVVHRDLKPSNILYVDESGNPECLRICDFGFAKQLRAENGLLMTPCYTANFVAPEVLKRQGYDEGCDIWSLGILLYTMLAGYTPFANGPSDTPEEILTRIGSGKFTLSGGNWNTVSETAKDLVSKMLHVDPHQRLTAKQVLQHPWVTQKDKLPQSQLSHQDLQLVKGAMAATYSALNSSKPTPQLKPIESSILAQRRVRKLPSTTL
# UniProt Q9NYA1, whole entry: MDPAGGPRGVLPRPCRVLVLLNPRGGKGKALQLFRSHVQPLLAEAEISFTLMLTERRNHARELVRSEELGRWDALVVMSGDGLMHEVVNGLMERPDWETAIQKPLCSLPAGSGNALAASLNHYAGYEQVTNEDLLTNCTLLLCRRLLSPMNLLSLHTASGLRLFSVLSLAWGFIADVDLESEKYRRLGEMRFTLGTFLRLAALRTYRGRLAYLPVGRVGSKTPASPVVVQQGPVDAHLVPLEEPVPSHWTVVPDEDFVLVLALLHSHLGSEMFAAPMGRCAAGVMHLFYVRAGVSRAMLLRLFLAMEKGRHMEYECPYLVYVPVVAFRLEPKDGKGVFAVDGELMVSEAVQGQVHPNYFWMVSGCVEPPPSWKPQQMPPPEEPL
# UniProt Q9Y6E0: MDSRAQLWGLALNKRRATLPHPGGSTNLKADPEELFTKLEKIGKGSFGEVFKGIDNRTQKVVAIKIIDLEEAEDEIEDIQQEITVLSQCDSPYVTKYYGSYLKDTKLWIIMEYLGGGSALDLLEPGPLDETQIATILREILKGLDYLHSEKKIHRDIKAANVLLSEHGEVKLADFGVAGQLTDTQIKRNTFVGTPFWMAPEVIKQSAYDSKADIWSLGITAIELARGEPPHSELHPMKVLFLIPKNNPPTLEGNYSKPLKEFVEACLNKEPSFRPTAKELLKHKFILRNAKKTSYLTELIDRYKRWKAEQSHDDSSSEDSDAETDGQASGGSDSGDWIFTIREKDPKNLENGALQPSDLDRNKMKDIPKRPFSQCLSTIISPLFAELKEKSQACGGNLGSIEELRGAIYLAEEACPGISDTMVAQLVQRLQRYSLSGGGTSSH
# Where a name gives a salt, the structure may show the parent alone. Some of the results follow. Hit calls seldom repeat between salt and free forms of one compound.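 In K562 cells expressing nanoluciferase-fused kinases, luminescence was recorded at 4 h intervals between 2 and 18 h, normalized as percent of control with DMSO at 100% and a positive control at 0%. A significant (2 sigma) signal drop marks a time point as decreased. The authors' rule for a hit is not shown and takes in more than the number of time points.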
# Key:
# Assay in all cases: kinase-Nluc reporter destabilization hit call (1 = scored as downregulated) (binary); higher = compound decreases kinase abundance
# Conditions in all cases: K562; 2-18 h
# RET = RET (UniProt P07949)
# [1] = biological target: RET_M918T (clone: RET_mut) (UniProt P07949)
# RIOK1 = RIOK1 (UniProt Q9BRS2)
# RIPK1 = RIPK1 (UniProt Q13546)
# RIPK2 = RIPK2 (UniProt O43353)
# ROR2 = ROR2 (UniProt Q01974)
# RPS6KA1 = RPS6KA1 (UniProt Q15418)
# SPHK1 = SPHK1 (UniProt Q9NYA1)
# SRC = SRC (UniProt P12931)
# STK24 = STK24 (UniProt Q9Y6E0)
SMILES,kinase-Nluc reporter destabilization hit call (RET),kinase-Nluc reporter destabilization hit call [1],kinase-Nluc reporter destabilization hit call (RIOK1),kinase-Nluc reporter destabilization hit call (RIPK1),kinase-Nluc reporter destabilization hit call (RIPK2),kinase-Nluc reporter destabilization hit call (ROR2),kinase-Nluc reporter destabilization hit call (RPS6KA1),kinase-Nluc reporter destabilization hit call (SPHK1),kinase-Nluc reporter destabilization hit call (SRC),kinase-Nluc reporter destabilization hit call (STK24)
CCc1c(C(=O)NNC(=O)[C@H](O)c2cc(F)cc(F)c2)ccc(O)c1C (10 µM),inactive: 0,inactive: 0,inactive: 0,inactive: 0,inactive: 0,inactive: 0,inactive: 0,inactive: 0,inactive: 0,inactive: 0
CCCCNc1ncc2c(-c3ccc(F)cc3)nn(CC3CCC(N)CC3)c2n1 (stereo not given) (2.5 µM),inactive: 0,inactive: 0,inactive: 0,inactive: 0,inactive: 0,inactive: 0,inactive: 0,inactive: 0,inactive: 0,inactive: 0
COc1ccc(CCNCc2ccc(OCc3ccc(Cl)nc3)c(OC)c2)cc1OC [SBE13 (Hydrochloride)] (10 µM),inactive: 0,inactive: 0,inactive: 0,inactive: 0,inactive: 0,inactive: 0,inactive: 0,inactive: 0,inactive: 0,inactive: 0
COc1ccc2cc1Oc1ccc(cc1)C[C@H]1c3cc(c(OC)cc3CCN1C)Oc1c(O)c(OC)cc3c1[C@H](C2)N(C)CC3 [Fangchinoline] (2.5 µM),inactive: 0,inactive: 0,inactive: 0,inactive: 0,inactive: 0,inactive: 0,inactive: 0,inactive: 0,inactive: 0,inactive: 0
N#CC(=C(/N)Sc1ccccc1N)/C(C#N)=C(\N)Sc1ccccc1N (10 µM),inactive: 0,inactive: 0,inactive: 0,inactive: 0,inactive: 0,inactive: 0,inactive: 0,inactive: 0,inactive: 0,inactive: 0
CC(ONC(=O)c1cc(C(F)(F)F)cc(C(F)(F)F)c1)C(=O)Nc1ccc(Cl)cc1 (stereo not given) (2.5 µM),inactive: 0,inactive: 0,inactive: 0,inactive: 0,inactive: 0,inactive: 0,inactive: 0,inactive: 0,inactive: 0,inactive: 0
Cc1nc(Nc2cnn(C3CCNCC3)c2)nc2c1N(C)C(=O)c1cc3ccccc3cc1N2C (2.5 µM),inactive: 0,inactive: 0,inactive: 0,inactive: 0,inactive: 0,inactive: 0,inactive: 0,inactive: 0,inactive: 0,inactive: 0
CC(C)(C)S(=O)(=O)c1cc2c(Nc3ccc4scnc4c3)ncnc2cc1OCCOP(=O)(O)O (2 µM),inactive: 0,inactive: 0,inactive: 0,inactive: 0,active: 1,inactive: 0,inactive: 0,inactive: 0,inactive: 0,inactive: 0
Cc1cc2c(F)c(Oc3ncnn4cc(OC[C@@H](C)OC(=O)[C@H](C)N)c(C)c34)ccc2[nH]1 [Brivanib (alaninate)] (10 µM),inactive: 0,inactive: 0,inactive: 0,inactive: 0,inactive: 0,inactive: 0,inactive: 0,inactive: 0,inactive: 0,inactive: 0
Nc1ccc(Sc2nc3ccccc3s2)c(Cl)c1 [KRAS inhibitor-9] (10 µM),inactive: 0,inactive: 0,inactive: 0,inactive: 0,inactive: 0,inactive: 0,inactive: 0,inactive: 0,inactive: 0,inactive: 0
NC(=O)c1sc2c([N+](=O)[O-])cc(C(F)(F)F)cc2[n+]1[O-] [Cyclapolin 9] (10 µM),inactive: 0,inactive: 0,inactive: 0,inactive: 0,inactive: 0,inactive: 0,inactive: 0,inactive: 0,inactive: 0,inactive: 0
COCCNc1cc(NC(=O)N2CCCc3cc(CN4CCOCC4=O)c(C=O)nc32)ncc1C#N (10 µM),inactive: 0,inactive: 0,inactive: 0,inactive: 0,inactive: 0,inactive: 0,inactive: 0,inactive: 0,inactive: 0,inactive: 0
CO[C@@H]1[C@H](N(C)C(=O)c2ccccc2)C[C@H]2O[C@]1(C)n1c3ccccc3c3c4c(c5c6ccccc6n2c5c31)C(=O)NC4 [Midostaurin] (2.5 µM),inactive: 0,inactive: 0,inactive: 0,inactive: 0,inactive: 0,inactive: 0,inactive: 0,inactive: 0,inactive: 0,inactive: 0
CC(C)Cn1ncc2cc(Oc3ccc(F)cc3F)c(C(=O)NCCN(C)C)cc21 [p38α inhibitor 1] (10 µM),inactive: 0,inactive: 0,inactive: 0,inactive: 0,inactive: 0,inactive: 0,inactive: 0,inactive: 0,inactive: 0,inactive: 0
Cn1cnc2c(F)c(Nc3ccc(Br)cc3F)c(C(=O)NOCCO)cc21 [Binimetinib] (10 µM),inactive: 0,inactive: 0,inactive: 0,inactive: 0,inactive: 0,inactive: 0,inactive: 0,inactive: 0,inactive: 0,inactive: 0
CC(C)c1cc2c(c(O)c1O)[C@@]13CCCC(C)(C)[C@@H]1C[C@@H]2OC3=O [Carnosol] (2.5 µM),inactive: 0,inactive: 0,inactive: 0,inactive: 0,inactive: 0,inactive: 0,inactive: 0,inactive: 0,inactive: 0,inactive: 0
COc1ccc2nc3ccc(OC)cc3c(SCCCN)c2c1 (10 µM),inactive: 0,inactive: 0,inactive: 0,inactive: 0,inactive: 0,inactive: 0,inactive: 0,inactive: 0,inactive: 0,inactive: 0
O=C(Nc1ccnc(NC(=O)C2CC2)c1)c1c(Cl)cccc1Cl (10 µM),inactive: 0,inactive: 0,inactive: 0,inactive: 0,inactive: 0,inactive: 0,inactive: 0,inactive: 0,inactive: 0,inactive: 0
C[C@H](Nc1cc2c(-c3ccc4c(c3)OCO4)noc2cn1)c1ccccc1 (10 µM),inactive: 0,inactive: 0,inactive: 0,inactive: 0,inactive: 0,inactive: 0,inactive: 0,inactive: 0,inactive: 0,inactive: 0
CC/C(=C(\c1ccccc1)c1ccc(OCCNC)cc1)c1ccccc1 [N-Desmethyltamoxifen (hydrochloride)] (2.5 µM),inactive: 0,inactive: 0,inactive: 0,inactive: 0,inactive: 0,inactive: 0,inactive: 0,inactive: 0,inactive: 0,inactive: 0
O=C(CCl)c1c[nH]c2ccccc12 (2.5 µM),inactive: 0,inactive: 0,inactive: 0,inactive: 0,inactive: 0,inactive: 0,inactive: 0,inactive: 0,inactive: 0,inactive: 0
O=CN1CCN(c2ccc(C=C3C(=O)Nc4ccccc43)cc2)CC1 (10 µM),inactive: 0,inactive: 0,inactive: 0,inactive: 0,inactive: 0,inactive: 0,inactive: 0,inactive: 0,inactive: 0,inactive: 0
CN1CCN(Cc2ccc(-c3cn(C4CCC(O)CC4)c4nc(NCCC5CC5)ncc34)cc2)CC1 (stereo not given) (2.5 µM),inactive: 0,inactive: 0,inactive: 0,inactive: 0,inactive: 0,inactive: 0,inactive: 0,inactive: 0,inactive: 0,inactive: 0
Cc1nc(NC(=O)N2CCC[C@H]2C(N)=O)sc1-c1ccnc(C(C)(C)C(F)(F)F)c1 [Alpelisib] (2.5 µM),inactive: 0,inactive: 0,inactive: 0,inactive: 0,inactive: 0,inactive: 0,inactive: 0,inactive: 0,inactive: 0,inactive: 0
COc1c(O)cc(O)c2c(=O)cc(-c3ccccc3)oc12 [Wogonin] (10 µM),inactive: 0,inactive: 0,inactive: 0,inactive: 0,inactive: 0,inactive: 0,inactive: 0,inactive: 0,inactive: 0,inactive: 0
CNCc1cc(Oc2ccc3c(ccn3C(=O)Nc3cc(C(F)(F)F)n(C)n3)c2)ncn1 [Acrizanib] (10 µM),inactive: 0,inactive: 0,inactive: 0,inactive: 0,inactive: 0,inactive: 0,inactive: 0,inactive: 0,inactive: 0,inactive: 0
CCn1c(N)c(C(=O)NC)c(=O)c2ccc(C#CC(C)(O)COC)nc21 (stereo not given) (10 µM),inactive: 0,inactive: 0,inactive: 0,inactive: 0,inactive: 0,inactive: 0,inactive: 0,inactive: 0,inactive: 0,inactive: 0
CNc1cc2c(Nc3cccc(Br)c3)ncnc2cn1 (10 µM),inactive: 0,inactive: 0,inactive: 0,inactive: 0,inactive: 0,inactive: 0,inactive: 0,inactive: 0,inactive: 0,inactive: 0
CN(C)CCn1cc2cc(NC(=O)c3cccc(C(F)(F)F)n3)c(C(C)(C)O)cc2n1 (10 µM),inactive: 0,inactive: 0,inactive: 0,inactive: 0,inactive: 0,inactive: 0,inactive: 0,inactive: 0,inactive: 0,inactive: 0
CS[C@@]1(C(=O)Nc2ccc3[nH]nc(-c4ccc(OC(C)C)nc4)c3c2)CCN(CC(=O)N2CC=C(c3ccc(-c4ncn(C)n4)cc3)CC2)C1 (2.5 µM),inactive: 0,inactive: 0,inactive: 0,inactive: 0,inactive: 0,inactive: 0,inactive: 0,inactive: 0,inactive: 0,inactive: 0

# Grouped by structure: those above with a cyano group
SMILES,kinase-Nluc reporter destabilization hit call (RET),kinase-Nluc reporter destabilization hit call [1],kinase-Nluc reporter destabilization hit call (RIOK1),kinase-Nluc reporter destabilization hit call (RIPK1),kinase-Nluc reporter destabilization hit call (RIPK2),kinase-Nluc reporter destabilization hit call (ROR2),kinase-Nluc reporter destabilization hit call (RPS6KA1),kinase-Nluc reporter destabilization hit call (SPHK1),kinase-Nluc reporter destabilization hit call (SRC),kinase-Nluc reporter destabilization hit call (STK24)
N#CC(=C(/N)Sc1ccccc1N)/C(C#N)=C(\N)Sc1ccccc1N (10 µM),inactive: 0,inactive: 0,inactive: 0,inactive: 0,inactive: 0,inactive: 0,inactive: 0,inactive: 0,inactive: 0,inactive: 0
COCCNc1cc(NC(=O)N2CCCc3cc(CN4CCOCC4=O)c(C=O)nc32)ncc1C#N (10 µM),inactive: 0,inactive: 0,inactive: 0,inactive: 0,inactive: 0,inactive: 0,inactive: 0,inactive: 0,inactive: 0,inactive: 0
